From publication PMC6698665
No constants are given. Whether binding was seen depends on the method and setting. In cells and extracts the contact can be indirect. Some entries that bind do so weakly or less than the wild type.

The chains behind the UniProt entries cited, without tags or fusion partners.
UniProt Q9GZX7: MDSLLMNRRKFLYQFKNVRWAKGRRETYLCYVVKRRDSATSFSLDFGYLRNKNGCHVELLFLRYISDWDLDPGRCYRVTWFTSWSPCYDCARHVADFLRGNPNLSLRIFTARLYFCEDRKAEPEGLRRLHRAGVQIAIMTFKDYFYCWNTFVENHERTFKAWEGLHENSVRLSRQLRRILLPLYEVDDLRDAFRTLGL
UniProt P09874: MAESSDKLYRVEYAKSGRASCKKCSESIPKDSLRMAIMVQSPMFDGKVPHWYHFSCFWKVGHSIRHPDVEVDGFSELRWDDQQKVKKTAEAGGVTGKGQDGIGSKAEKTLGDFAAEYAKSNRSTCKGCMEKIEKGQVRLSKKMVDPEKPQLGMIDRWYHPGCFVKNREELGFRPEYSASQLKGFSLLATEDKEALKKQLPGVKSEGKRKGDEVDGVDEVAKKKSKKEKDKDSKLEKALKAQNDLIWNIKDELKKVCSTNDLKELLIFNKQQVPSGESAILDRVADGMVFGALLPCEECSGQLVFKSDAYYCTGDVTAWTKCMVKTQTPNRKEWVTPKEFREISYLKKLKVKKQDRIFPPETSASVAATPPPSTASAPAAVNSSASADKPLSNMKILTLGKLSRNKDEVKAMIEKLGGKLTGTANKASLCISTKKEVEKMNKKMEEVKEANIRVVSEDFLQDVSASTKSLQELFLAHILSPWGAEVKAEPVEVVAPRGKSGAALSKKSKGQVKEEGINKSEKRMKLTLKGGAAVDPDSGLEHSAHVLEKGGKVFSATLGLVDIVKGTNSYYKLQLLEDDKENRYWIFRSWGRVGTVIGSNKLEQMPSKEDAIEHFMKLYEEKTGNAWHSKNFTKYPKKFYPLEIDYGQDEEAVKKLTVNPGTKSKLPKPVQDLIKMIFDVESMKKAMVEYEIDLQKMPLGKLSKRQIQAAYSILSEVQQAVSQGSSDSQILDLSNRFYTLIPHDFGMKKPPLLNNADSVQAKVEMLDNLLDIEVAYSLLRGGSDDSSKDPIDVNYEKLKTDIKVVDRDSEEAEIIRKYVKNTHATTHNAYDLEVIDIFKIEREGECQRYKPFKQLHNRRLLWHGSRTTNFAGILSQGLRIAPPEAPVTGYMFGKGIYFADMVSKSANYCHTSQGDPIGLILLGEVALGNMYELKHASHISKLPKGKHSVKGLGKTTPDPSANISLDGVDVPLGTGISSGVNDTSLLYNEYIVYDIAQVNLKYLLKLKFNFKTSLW

Molecular target: activation-induced deaminase (AID) (human (endogenous in Raji)) (UniProt Q9GZX7)
Assay: co-IP; anti-AID antibody (clone EK2/2H5) on Protein G-Sepharose, Raji cell lysate (0.5% IGEPAL or NP40, 150 mM NaCl, 15 U/ml DNase), overnight at 4°C, 12 washes with 300 mM NaCl; Western blot for PARP-1 and AID; cells untreated or treated with 0.1% MMS for 1 h (interaction more pronounced with MMS)

- binding: binds
Substance: poly(ADP-ribose) polymerase-1 (PARP-1) (from UniProt P09874 1-1014) (enzyme)
